The source of these data is the supplement of paper PMC3334620.

The full ranking holds about 33,000 sequences; the median of “E-score (-0.5 to 0.5)” is about -0.0034, and the highest 2% start at about 0.25. The list shows a part of the results.

The target in the test is T1, Yap3 (UniProt P38749).
T1 sequence: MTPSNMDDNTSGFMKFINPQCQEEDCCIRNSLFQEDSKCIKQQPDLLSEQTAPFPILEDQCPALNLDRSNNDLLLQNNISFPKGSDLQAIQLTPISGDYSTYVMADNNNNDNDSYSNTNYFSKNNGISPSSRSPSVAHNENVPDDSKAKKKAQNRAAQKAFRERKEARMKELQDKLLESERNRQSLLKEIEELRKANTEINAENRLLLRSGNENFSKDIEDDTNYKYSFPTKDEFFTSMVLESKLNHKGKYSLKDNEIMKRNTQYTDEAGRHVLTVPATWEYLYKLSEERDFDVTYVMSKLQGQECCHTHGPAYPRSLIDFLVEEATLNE
Put plainly: PBM E-score (8-mer binding enrichment) (E-score (-0.5 to 0.5)); higher = stronger / more preferred TF binding. As to conditions: protein concentration: 100 nM; construct: GST-full length. The essentials:
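The E-score, a modified Wilcoxon-Mann-Whitney statistic, was computed by the Universal PBM Analysis Suite for every ungapped eight-base word pooled with its reverse complement. Scans behind it were normalised with masliner after bound GST-tagged yeast transcription factors were detected with fluorescent anti-GST. The proteins, at about 100-200 nM, had been applied to universal all-10-mer Agilent arrays made double-stranded by primer extension.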
As for GTTCAGAA, the “PBM E-score” value came to 0.0372.
The same measure for AACATTCG: -0.0486; for AATTACCG: 0.162.
Then AAAGCCCG, with -0.164; and CTCCCTTC, with -0.317; and CTCTTGAC, with -0.066.
The same measure for GTTTTGTA: 0.211.
In the case of GACGCGAC, the “PBM E-score” value is -0.0383.
For AGCAAGAT, the “PBM E-score” value is 0.14.
AACGGGTC: the “PBM E-score” value was -0.231.
Then CATTCGGC, with -0.0237.
Take GGCTGACA: the “PBM E-score” value turned out to be 0.022.
The same measure for AGCGGTCA: -0.0767; for TCTATTCA: 0.222.
The same measure for AAGCCGAG: -0.00369; for ACCCGACT: 0.0959.
The same measure for GCGAATCC: 0.0544.
TACTTCTA: the “PBM E-score” value worked out at 0.16.
Then AATACAGA, with 0.139; and ACGAGAGG, with -0.0888.
For CGTACATA, the “PBM E-score” value turned out to be 0.17.
The same measure for ACGAAGCG: -0.188; for CACCACTG: -0.0386; for ATCGACGA: -0.0934.
Take CCGACTAC: the “PBM E-score” value was -0.208.
For CAGGTCCA, the “PBM E-score” value was -0.166.
Then CTTGCGCC, with -0.0687; and GTTCGTGA, with -0.165; and AAGAGGCC, with -0.154.
Consider AGCGCCCT, for which the “PBM E-score” value was -0.171.
Then GGTAGACC, with -0.0755; and GACCGACC, with -0.101.
Regarding GTGACCGA, the “PBM E-score” value is -0.132.
As for CAAAGTGG, the “PBM E-score” value was -0.17.
The same measure for AGTACGTA: 0.241; for ACCTTCGC: -0.149.
With CAGCGGAG, the “PBM E-score” value was -0.0541.
Then GACCGGAC, with -0.136.
The same measure for CTCTAATC: -0.0693; for CACGAGTC: -0.0731.
As for CAAACGAG, the “PBM E-score” value was -0.029.
Then ATATTGAA, with 0.124; and AATCATAG, with 0.147; and CAACAGCA, with 0.0814.
Turning to ACCCAAAC, the “PBM E-score” value was 0.0961.
As to CCAGGGAC, the “PBM E-score” value is -0.181.
With ATGTCTTC, the “PBM E-score” value was -0.215.
With ATCCCCAC, the “PBM E-score” value was determined as 0.0332.
As for CTAGTGAA, the “PBM E-score” value is -0.106.
For ATTAAGGA, the “PBM E-score” value was determined as 0.0554.
Take ATTCTTTG: the “PBM E-score” value was found to be 0.175.
As to GCTGATGA, the “PBM E-score” value was 0.0583.
The same measure for AGCTGCGA: -0.0657.
Turning to GCCATTCA, the “PBM E-score” value was -0.00615.
Then CGCCAAGC, with -0.221; and ACCTCGCA, with -0.00872.
On to AACAGCAA, for which the “PBM E-score” value came to 0.238.
Then AACCGTGA, with 0.0686; and ACACACGC, with 0.112.
Then CTCAGAAA, with 0.145; and CTTACCCC, with -0.159.
In the case of ACTTGTTG, the “PBM E-score” value is -0.123.
Then CAGACTAA, with -0.0227.
With AAGGAGTG, the “PBM E-score” value was -0.0362.
The same measure for ATGTACCG: -0.00608.
Then ACCAATAT, with 0.254; and CGGCTCTA, with -0.067.
Then AGTACGCA, with -0.203.
Turning to AAGAGACG, the “PBM E-score” value was -0.0232.
The same measure for CGGCCATA: -0.106; for ACGCAATG: -0.0418; for ATGTAAAG: 0.0929.
Then AGGTCTTA, with -0.12; and CAGAGTCG, with -0.0868.
For the sequence CAGCATAG, the “PBM E-score” value is -0.0432.
Consider ATAGCACC, for which the “PBM E-score” value was -0.0773.
The same measure for CGCCATAG: -0.0105; for GAGACCTC: -0.189; for CTCGGCGC: 0.00143.
As for CACGGTGA, the “PBM E-score” value is 0.0265.
The same measure for GTCATTCA: 0.103; for GCAAAACA: 0.132; for GTACGTAC: 0.0261.
The same measure for ACCCGTAA: 0.0292.
For the sequence CGCGGGGA, the “PBM E-score” value was determined as 0.0543.
CCCTCGAC: the “PBM E-score” value is -0.118.
